Assay [1] addresses p53 (rat (endogenous in H9c2)) (UniProt P10361). Description: co-IP; H9c2 cells transfected with Flag-PLIN5 for 24 h, then Erastin (10 uM) for 24 h; lysates precipitated with anti-FLAG, anti-USP10 or anti-p53 antibodies and Protein A/G magnetic beads (IP/Co-IP kit, BersinBio), 4 C overnight; immunoblot for USP10. On the technique in general: Immunoblotting shows a protein as a band on a membrane.

Sequences of proteins named here, by UniProt entry; tags and fusion partners are left off.
UniProt P10361: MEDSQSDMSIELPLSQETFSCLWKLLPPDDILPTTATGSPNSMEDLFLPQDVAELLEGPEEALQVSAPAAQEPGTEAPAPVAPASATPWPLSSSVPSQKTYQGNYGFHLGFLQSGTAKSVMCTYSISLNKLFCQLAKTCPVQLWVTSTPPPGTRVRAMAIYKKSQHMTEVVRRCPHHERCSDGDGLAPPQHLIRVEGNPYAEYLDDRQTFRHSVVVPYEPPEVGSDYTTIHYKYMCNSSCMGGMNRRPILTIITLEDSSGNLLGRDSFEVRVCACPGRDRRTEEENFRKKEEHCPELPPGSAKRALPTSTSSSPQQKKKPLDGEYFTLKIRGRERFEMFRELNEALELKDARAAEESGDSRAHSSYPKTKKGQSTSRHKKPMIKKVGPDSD
UniProt Q3KR59: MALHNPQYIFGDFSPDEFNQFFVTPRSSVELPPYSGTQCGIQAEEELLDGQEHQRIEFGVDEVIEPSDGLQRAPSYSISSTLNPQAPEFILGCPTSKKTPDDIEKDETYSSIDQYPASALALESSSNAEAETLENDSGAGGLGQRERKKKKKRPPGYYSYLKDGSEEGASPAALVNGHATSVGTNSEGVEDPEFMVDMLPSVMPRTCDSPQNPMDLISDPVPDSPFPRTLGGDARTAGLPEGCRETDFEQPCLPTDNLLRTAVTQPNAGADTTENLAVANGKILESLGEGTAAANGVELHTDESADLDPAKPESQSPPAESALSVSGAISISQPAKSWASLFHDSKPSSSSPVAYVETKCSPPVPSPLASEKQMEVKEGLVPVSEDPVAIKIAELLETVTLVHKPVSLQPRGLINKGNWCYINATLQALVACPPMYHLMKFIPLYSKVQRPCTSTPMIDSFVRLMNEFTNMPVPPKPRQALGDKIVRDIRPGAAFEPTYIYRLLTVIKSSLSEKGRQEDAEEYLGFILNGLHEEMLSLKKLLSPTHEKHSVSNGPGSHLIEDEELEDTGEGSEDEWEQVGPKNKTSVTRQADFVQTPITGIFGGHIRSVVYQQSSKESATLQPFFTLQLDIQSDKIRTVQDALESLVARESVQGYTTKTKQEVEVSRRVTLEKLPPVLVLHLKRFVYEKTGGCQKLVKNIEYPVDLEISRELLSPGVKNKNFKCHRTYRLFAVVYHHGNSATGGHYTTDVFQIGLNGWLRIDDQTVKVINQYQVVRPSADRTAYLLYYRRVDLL

Assay [2] deals with T1, Perilipin 5 (PLIN5), FLAG-tagged (UniProt M0R7Z9).
T1 sequence: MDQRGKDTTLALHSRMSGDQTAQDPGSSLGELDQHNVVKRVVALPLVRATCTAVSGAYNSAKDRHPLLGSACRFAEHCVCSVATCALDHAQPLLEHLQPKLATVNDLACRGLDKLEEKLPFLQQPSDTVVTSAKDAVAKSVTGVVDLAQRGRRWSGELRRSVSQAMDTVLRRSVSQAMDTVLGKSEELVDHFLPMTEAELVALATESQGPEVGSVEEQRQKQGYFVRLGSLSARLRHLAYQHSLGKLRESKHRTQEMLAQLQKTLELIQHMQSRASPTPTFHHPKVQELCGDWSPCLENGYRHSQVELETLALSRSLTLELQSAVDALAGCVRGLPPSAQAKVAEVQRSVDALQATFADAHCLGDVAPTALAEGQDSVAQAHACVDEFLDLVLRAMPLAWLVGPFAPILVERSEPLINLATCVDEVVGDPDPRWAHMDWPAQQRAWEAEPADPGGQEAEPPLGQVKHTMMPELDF
The assay is described as above.

No constants are given. Whether binding was seen depends on the method and setting. In cells and extracts the contact can be indirect. Some binding calls cover weakened binding; strength is not graded here. For some assays here: Sequences can lack the tags named with a protein.

Take “ubiquitin-specific peptidase 10 (USP10) (from UniProt Q3KR59 1-794) (enzyme)”: the binding result in assay [1] and in assay [2] was “binds” throughout.

The values are drawn from publication PMC12259547.
